Data as given in PubChem BioAssay AID1508597 (Cure First, 2020)

Assay: 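Genes whose silencing sensitises or protects ovarian cancer cells against rucaparib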 (primary screen)
Cells: human ovarian carcinoma lines grown from tumours: OCI-P5x (papillary serous) and OCI-C5x (clear cell)
Knock-down reagent: siRNA pool against human genes, 1.25 pmol siRNA per well
Time to read-out: 72 h or 96 h, depending on the cell culture
Treatment: rucaparib 20 µM (about IC30) or vehicle, present until read-out
Detection: 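ATP luminescence measured at 72 or 96 h according to the culture, then normalised and expressed as percent viability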
Reading the numbers: viability, normalised: higher = more viable cells remaining
Active means: 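a well counts as a hit if its normalised viability is under 80 percent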
Meaning of the calls: active = viability under 80%; inactive = viability 80% or more
In all, the deposit lists about 2,100 reagents; this is a part drawn at random. 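Calls flag viability under 80% in either arm, not effects specific to rucaparib; the reference for percent is not stated.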 Entries without a mark were called inactive. Not given: the 100% reference.

MAPK15 (mitogen-activated protein kinase 15), rucaparib or vehicle Rucaparib, cell line OCI-C5x (clear cell), technical replicate 1
- viability, normalised (%): 44.6 (active)

MAPK15 (mitogen-activated protein kinase 15), rucaparib or vehicle Rucaparib, cell line OCI-C5x (clear cell), technical replicate 2
- viability, normalised (%): 35.9 (active)

MAPK15 (mitogen-activated protein kinase 15), rucaparib or vehicle Rucaparib, cell line OCI-C5x (clear cell), technical replicate 3
- viability, normalised (%): 29.9 (active)

MAPK15 (mitogen-activated protein kinase 15), rucaparib or vehicle Rucaparib, cell line OCI-P5x (serous), technical replicate 1
- viability, normalised (%): 73.9 (active)

MAPK15 (mitogen-activated protein kinase 15), rucaparib or vehicle Rucaparib, cell line OCI-P5x (serous), technical replicate 2
- viability, normalised (%): 76 (active)

MAPK15 (mitogen-activated protein kinase 15), rucaparib or vehicle Rucaparib, cell line OCI-P5x (serous), technical replicate 3
- viability, normalised (%): 80.8

MAPK15 (mitogen-activated protein kinase 15), rucaparib or vehicle Vehicle, cell line OCI-C5x (clear cell), technical replicate 1
- viability, normalised (%): 52.7 (active)

MAPK15 (mitogen-activated protein kinase 15), rucaparib or vehicle Vehicle, cell line OCI-C5x (clear cell), technical replicate 2
- viability, normalised (%): 48.4 (active)

MAPK15 (mitogen-activated protein kinase 15), rucaparib or vehicle Vehicle, cell line OCI-C5x (clear cell), technical replicate 3
- viability, normalised (%): 62.4 (active)

MAPK15 (mitogen-activated protein kinase 15), rucaparib or vehicle Vehicle, cell line OCI-P5x (serous), technical replicate 1
- viability, normalised (%): 88.1

MAPK15 (mitogen-activated protein kinase 15), rucaparib or vehicle Vehicle, cell line OCI-P5x (serous), technical replicate 2
- viability, normalised (%): 80 (active)

MAPK15 (mitogen-activated protein kinase 15), rucaparib or vehicle Vehicle, cell line OCI-P5x (serous), technical replicate 3
- viability, normalised (%): 88.4

ENPP5, rucaparib or vehicle Rucaparib, cell line OCI-C5x (clear cell), technical replicate 1
- viability, normalised (%): 34.2 (active)

ENPP5, rucaparib or vehicle Rucaparib, cell line OCI-C5x (clear cell), technical replicate 2
- viability, normalised (%): 40.5 (active)

ENPP5, rucaparib or vehicle Rucaparib, cell line OCI-C5x (clear cell), technical replicate 3
- viability, normalised (%): 28.9 (active)

ENPP5, rucaparib or vehicle Rucaparib, cell line OCI-P5x (serous), technical replicate 1
- viability, normalised (%): 72 (active)

ENPP5, rucaparib or vehicle Rucaparib, cell line OCI-P5x (serous), technical replicate 2
- viability, normalised (%): 66.1 (active)

ENPP5, rucaparib or vehicle Rucaparib, cell line OCI-P5x (serous), technical replicate 3
- viability, normalised (%): 72.6 (active)

ENPP5, rucaparib or vehicle Vehicle, cell line OCI-C5x (clear cell), technical replicate 1
- viability, normalised (%): 36.4 (active)

ENPP5, rucaparib or vehicle Vehicle, cell line OCI-C5x (clear cell), technical replicate 2
- viability, normalised (%): 33.1 (active)

ENPP5, rucaparib or vehicle Vehicle, cell line OCI-C5x (clear cell), technical replicate 3
- viability, normalised (%): 32.1 (active)

ENPP5, rucaparib or vehicle Vehicle, cell line OCI-P5x (serous), technical replicate 1
- viability, normalised (%): 65.4 (active)

ENPP5, rucaparib or vehicle Vehicle, cell line OCI-P5x (serous), technical replicate 2
- viability, normalised (%): 71.4 (active)

ENPP5, rucaparib or vehicle Vehicle, cell line OCI-P5x (serous), technical replicate 3
- viability, normalised (%): 95.3

Reprinted from above, 5 entries:
MAPK15 (mitogen-activated protein kinase 15), rucaparib or vehicle Vehicle, cell line OCI-P5x (serous), technical replicate 1
- viability, normalised (%): 88.1

MAPK15 (mitogen-activated protein kinase 15), rucaparib or vehicle Vehicle, cell line OCI-P5x (serous), technical replicate 2
- viability, normalised (%): 80 (active)

MAPK15 (mitogen-activated protein kinase 15), rucaparib or vehicle Vehicle, cell line OCI-P5x (serous), technical replicate 3
- viability, normalised (%): 88.4

ENPP5, rucaparib or vehicle Rucaparib, cell line OCI-C5x (clear cell), technical replicate 1
- viability, normalised (%): 34.2 (active)

ENPP5, rucaparib or vehicle Rucaparib, cell line OCI-C5x (clear cell), technical replicate 2
- viability, normalised (%): 40.5 (active)

The results go on:
FLT1 (fms related receptor tyrosine kinase 1), rucaparib or vehicle Rucaparib, cell line OCI-C5x (clear cell), technical replicate 1
- viability, normalised (%): 44.2 (active)

FLT1 (fms related receptor tyrosine kinase 1), rucaparib or vehicle Rucaparib, cell line OCI-C5x (clear cell), technical replicate 2
- viability, normalised (%): 41 (active)

FLT1 (fms related receptor tyrosine kinase 1), rucaparib or vehicle Rucaparib, cell line OCI-C5x (clear cell), technical replicate 3
- viability, normalised (%): 37.1 (active)

FLT1 (fms related receptor tyrosine kinase 1), rucaparib or vehicle Rucaparib, cell line OCI-P5x (serous), technical replicate 1
- viability, normalised (%): 89.1

FLT1 (fms related receptor tyrosine kinase 1), rucaparib or vehicle Rucaparib, cell line OCI-P5x (serous), technical replicate 2
- viability, normalised (%): 89.6

FLT1 (fms related receptor tyrosine kinase 1), rucaparib or vehicle Rucaparib, cell line OCI-P5x (serous), technical replicate 3
- viability, normalised (%): 95.4

FLT1 (fms related receptor tyrosine kinase 1), rucaparib or vehicle Vehicle, cell line OCI-C5x (clear cell), technical replicate 1
- viability, normalised (%): 56.6 (active)

FLT1 (fms related receptor tyrosine kinase 1), rucaparib or vehicle Vehicle, cell line OCI-C5x (clear cell), technical replicate 2
- viability, normalised (%): 43.8 (active)

FLT1 (fms related receptor tyrosine kinase 1), rucaparib or vehicle Vehicle, cell line OCI-C5x (clear cell), technical replicate 3
- viability, normalised (%): 45.4 (active)

FLT1 (fms related receptor tyrosine kinase 1), rucaparib or vehicle Vehicle, cell line OCI-P5x (serous), technical replicate 1
- viability, normalised (%): 78.4 (active)

FLT1 (fms related receptor tyrosine kinase 1), rucaparib or vehicle Vehicle, cell line OCI-P5x (serous), technical replicate 2
- viability, normalised (%): 85.1

FLT1 (fms related receptor tyrosine kinase 1), rucaparib or vehicle Vehicle, cell line OCI-P5x (serous), technical replicate 3
- viability, normalised (%): 68.7 (active)

PHF12 (PHD finger protein 12), rucaparib or vehicle Rucaparib, cell line OCI-C5x (clear cell), technical replicate 1
- viability, normalised (%): 40.9 (active)

PHF12 (PHD finger protein 12), rucaparib or vehicle Rucaparib, cell line OCI-C5x (clear cell), technical replicate 2
- viability, normalised (%): 34.7 (active)

PHF12 (PHD finger protein 12), rucaparib or vehicle Rucaparib, cell line OCI-C5x (clear cell), technical replicate 3
- viability, normalised (%): 52.3 (active)

PHF12 (PHD finger protein 12), rucaparib or vehicle Rucaparib, cell line OCI-P5x (serous), technical replicate 1
- viability, normalised (%): 61 (active)

PHF12 (PHD finger protein 12), rucaparib or vehicle Rucaparib, cell line OCI-P5x (serous), technical replicate 2
- viability, normalised (%): 49.4 (active)

PHF12 (PHD finger protein 12), rucaparib or vehicle Rucaparib, cell line OCI-P5x (serous), technical replicate 3
- viability, normalised (%): 54.6 (active)

PHF12 (PHD finger protein 12), rucaparib or vehicle Vehicle, cell line OCI-C5x (clear cell), technical replicate 1
- viability, normalised (%): 40.7 (active)

PHF12 (PHD finger protein 12), rucaparib or vehicle Vehicle, cell line OCI-C5x (clear cell), technical replicate 2
- viability, normalised (%): 54.6 (active)

PHF12 (PHD finger protein 12), rucaparib or vehicle Vehicle, cell line OCI-C5x (clear cell), technical replicate 3
- viability, normalised (%): 57.9 (active)

PHF12 (PHD finger protein 12), rucaparib or vehicle Vehicle, cell line OCI-P5x (serous), technical replicate 1
- viability, normalised (%): 64.8 (active)

PHF12 (PHD finger protein 12), rucaparib or vehicle Vehicle, cell line OCI-P5x (serous), technical replicate 2
- viability, normalised (%): 57.4 (active)

PHF12 (PHD finger protein 12), rucaparib or vehicle Vehicle, cell line OCI-P5x (serous), technical replicate 3
- viability, normalised (%): 61.5 (active)
